# In PubChem BioAssay AID493229 (Broad Institute, 2011):
# Amino acid sequences for entries named in this document (tags omitted). A change or cut given only in a name is not applied to a line headed by its entry.
# UniProt P9WHJ3: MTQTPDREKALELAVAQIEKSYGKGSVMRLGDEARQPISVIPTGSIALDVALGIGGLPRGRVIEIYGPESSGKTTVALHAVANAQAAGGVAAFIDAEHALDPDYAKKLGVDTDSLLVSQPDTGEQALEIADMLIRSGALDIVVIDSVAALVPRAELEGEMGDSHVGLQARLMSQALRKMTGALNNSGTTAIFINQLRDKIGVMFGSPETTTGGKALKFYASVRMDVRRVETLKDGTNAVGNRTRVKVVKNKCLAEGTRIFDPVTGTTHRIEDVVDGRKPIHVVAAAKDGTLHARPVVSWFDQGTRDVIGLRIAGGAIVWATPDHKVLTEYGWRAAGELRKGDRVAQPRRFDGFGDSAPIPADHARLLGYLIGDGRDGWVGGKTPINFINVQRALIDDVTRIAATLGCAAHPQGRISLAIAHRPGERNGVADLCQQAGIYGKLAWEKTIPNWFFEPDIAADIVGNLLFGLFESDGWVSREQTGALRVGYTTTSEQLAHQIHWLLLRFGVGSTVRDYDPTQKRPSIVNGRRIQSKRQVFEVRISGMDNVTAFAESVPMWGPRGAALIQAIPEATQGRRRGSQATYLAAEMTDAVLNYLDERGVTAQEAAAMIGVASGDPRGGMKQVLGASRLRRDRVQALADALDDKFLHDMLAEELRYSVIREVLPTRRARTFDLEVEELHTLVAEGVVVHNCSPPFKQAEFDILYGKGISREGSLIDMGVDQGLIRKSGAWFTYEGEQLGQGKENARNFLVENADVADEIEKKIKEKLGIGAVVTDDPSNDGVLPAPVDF
# All entries are inconclusive by the source's own rule. Clear calls are listed elsewhere. How the calls were made is not given here.
# Biological target: Protein RecA (Mycobacterium tuberculosis (strain ATCC 25618 / H37Rv)) (UniProt P9WHJ3)
# Assay: Mycobacterium tuberculosis RecA intein splicing inhibitors, confirmatory dry powder dose response (AID 493229)
# Settings: biochemical plate reader; at 35 µM (top of the series)
compound,measurement,value
Cc1oc2c(c1C(=O)NCc1cccnc1)C(=O)c1ccccc1C2=O,"activity change, negative = inhibition",inconclusive: -97.5%
